The full ranking holds about 33,000 sequences; the median of “E-score (-0.5 to 0.5)” is about -0.0059, and the highest 2% start at about 0.26. This is one part of the list.

The record followed here is the supplement of paper PMC3334620.

The experiment addresses T1, Cin5 (UniProt P40917).
T1 sequence: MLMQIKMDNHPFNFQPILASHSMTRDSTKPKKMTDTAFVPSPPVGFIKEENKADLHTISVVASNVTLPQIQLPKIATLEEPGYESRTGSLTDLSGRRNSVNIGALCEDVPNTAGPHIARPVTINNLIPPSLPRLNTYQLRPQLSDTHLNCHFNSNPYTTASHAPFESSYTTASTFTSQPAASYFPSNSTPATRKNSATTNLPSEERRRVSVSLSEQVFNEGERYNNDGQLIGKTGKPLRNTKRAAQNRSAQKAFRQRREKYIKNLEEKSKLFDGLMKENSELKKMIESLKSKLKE
Description: PBM E-score (8-mer binding enrichment) (E-score (-0.5 to 0.5)); higher = stronger / more preferred TF binding. Particulars: protein concentration: 100 nM; construct: GST-full length. The method in brief:
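Full-length yeast transcription factors or their DNA-binding domains, GST-tagged and expressed with PURExpress, were applied at about 100-200 nM to universal all-10-mer Agilent arrays. These arrays had been made double-stranded by primer extension on fresh or once-stripped slides. Detection used fluorescent anti-GST, normalisation used masliner, and E-scores for ungapped eight-base words pooled with reverse complements came from the Universal PBM Analysis Suite.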
Turning to TCGATAGA, the “PBM E-score” value was -0.0445.

Take TCGTTAAA: the “PBM E-score” value was -0.0492.

Consider CACATCTC, for which the “PBM E-score” value was determined as 0.16.

Consider TCATCAAA, for which the “PBM E-score” value worked out at 0.0473.

On to ACCCATCC, for which the “PBM E-score” value is -0.0519.

Take CATTAGTA: the “PBM E-score” value is 0.188.

Regarding GAGCAATA, the “PBM E-score” value was 0.0169.

For AGCACTTC, the “PBM E-score” value was 0.065.

Take AAGTGGGG: the “PBM E-score” value was -0.101.

Regarding ACAGGAAT, the “PBM E-score” value was -0.0516.

Take GCGGCTAA: the “PBM E-score” value is -0.00261.

For GACCAGGA, the “PBM E-score” value is -0.112.

For TGGGTGAA, the “PBM E-score” value is 0.225.

Regarding CGAATATC, the “PBM E-score” value was 0.144.

Consider CACCTGAG, for which the “PBM E-score” value was -0.0269.

For the sequence AGGATAAG, the “PBM E-score” value is -0.0206.

For TTCATCAA, the “PBM E-score” value came out at 0.165.

Turning to TATTCTAA, the “PBM E-score” value came out at 0.134.

Take TAGCATGA: the “PBM E-score” value is 0.135.

As for CGATCGAC, the “PBM E-score” value turned out to be 0.0723.

As for ATTCAATA, the “PBM E-score” value was determined as 0.182.

On to CAGACCCG, for which the “PBM E-score” value was -0.0305.

Take ACGGGCAA: the “PBM E-score” value is -0.141.

Take ATCAGTAC: the “PBM E-score” value is 0.0414.

Consider CTACTATC, for which the “PBM E-score” value is 0.257.

In the case of CAATTCAG, the “PBM E-score” value stood at 0.0836.

On to GTCTAAAC, for which the “PBM E-score” value worked out at 0.0651.

TTCGTCAA: the “PBM E-score” value was found to be 0.016.

Regarding AAGAACGT, the “PBM E-score” value came out at 0.15.

CCCCATGC: the “PBM E-score” value is -0.0905.

Regarding CTAGCGAG, the “PBM E-score” value is -0.221.

As to AGGTAAGA, the “PBM E-score” value is 0.0847.

Consider ATCAACAT, for which the “PBM E-score” value is 0.169.

Take CCAGTCCC: the “PBM E-score” value was -0.0959.

As for ATTTTCAC, the “PBM E-score” value turned out to be 0.143.

With TGCCTCCA, the “PBM E-score” value is -0.213.

In the case of CAGCGTGC, the “PBM E-score” value is -0.161.

On to AAGCCAAC, for which the “PBM E-score” value was determined as 0.00646.

AACCAATG: the “PBM E-score” value stood at 0.152.

As to GCGTATGA, the “PBM E-score” value is 0.0035.

Take AATTATAG: the “PBM E-score” value came to 0.188.

With CGGGTCGA, the “PBM E-score” value is -0.181.

With ACATGTGC, the “PBM E-score” value is 0.0977.

For GATGCTGC, the “PBM E-score” value is -0.13.

Turning to ACGGATTG, the “PBM E-score” value stood at 0.169.

Take AAAGGGTG: the “PBM E-score” value is -0.149.

For the sequence CCTACCGA, the “PBM E-score” value was -0.0732.

AACTACCG: the “PBM E-score” value was -0.131.

On to GACCTCTC, for which the “PBM E-score” value is -0.0169.

Take CTCGGAAG: the “PBM E-score” value was -0.0459.

As to CTAGAGAC, the “PBM E-score” value was -0.172.

Turning to GGGGTTGA, the “PBM E-score” value is 0.0524.

Consider GATAAACC, for which the “PBM E-score” value turned out to be 0.0849.

For the sequence AACATCGT, the “PBM E-score” value is -0.0661.

For CGTTGGCA, the “PBM E-score” value was -0.0305.

For GTTAGGCA, the “PBM E-score” value is -0.149.

As to AATTACTC, the “PBM E-score” value amounted to 0.241.

In the case of CGCAATCC, the “PBM E-score” value is 0.16.

As to ACTGTCAG, the “PBM E-score” value is 0.103.

In the case of ACCGTGTG, the “PBM E-score” value is -0.178.

For GAGGTCTA, the “PBM E-score” value is -0.179.

Turning to ACTCCTTC, the “PBM E-score” value was -0.155.

With CGGCTTTC, the “PBM E-score” value is -0.091.

For AGCTAGAG, the “PBM E-score” value is -0.0418.

Turning to ACCCCTCT, the “PBM E-score” value was -0.17.

CGGTGTAC: the “PBM E-score” value was -0.147.

As to CATAAATA, the “PBM E-score” value was determined as 0.183.

For CTGAAAAC, the “PBM E-score” value was -0.105.

In the case of ATACTGAC, the “PBM E-score” value was determined as 0.192.

With TCGAACGA, the “PBM E-score” value came out at 0.103.

GAGGTATC: the “PBM E-score” value is -0.12.

Take CCAAATAG: the “PBM E-score” value came out at 0.0432.

Regarding CCCACGAG, the “PBM E-score” value is -0.086.

Turning to AGACTGTC, the “PBM E-score” value was -0.224.

As to CCGGCTAC, the “PBM E-score” value was -0.0224.

In the case of ACGTGGAG, the “PBM E-score” value worked out at 0.0901.

For the sequence CCTCTTCG, the “PBM E-score” value is 0.0255.

On to ATGCCCTA, for which the “PBM E-score” value was -0.0594.

As for CTTGCCTC, the “PBM E-score” value was -0.103.

Turning to AGTATATA, the “PBM E-score” value was found to be 0.346.

For the sequence GCGATGGA, the “PBM E-score” value is 0.0569.

As for AGCTTGCC, the “PBM E-score” value was -0.0852.

For AGGACTCC, the “PBM E-score” value was -0.328.

On to AACGAGCC, for which the “PBM E-score” value was -0.188.

Take CGCCCCAC: the “PBM E-score” value came to 0.131.

On to CCACTAGA, for which the “PBM E-score” value was -0.235.

As to ACCACCTA, the “PBM E-score” value is -3e-05.

For the sequence ACGCGGTC, the “PBM E-score” value is -0.0605.

For CACTGAAC, the “PBM E-score” value worked out at 0.0413.

As for ATCCCTAG, the “PBM E-score” value was determined as 0.0251.

With CTGACGCC, the “PBM E-score” value is -0.194.

Take CTGCCCCC: the “PBM E-score” value was -0.324.

As to AAAGGTAG, the “PBM E-score” value was -0.101.

As to CTCTAAAG, the “PBM E-score” value was -0.0882.

As for AGCTCATG, the “PBM E-score” value was -0.0196.

As to ACTCATAA, the “PBM E-score” value came to 0.132.

In the case of ACGCAACC, the “PBM E-score” value was -0.0681.

With AAGGGCAC, the “PBM E-score” value is -0.219.

Consider GCATTGCA, for which the “PBM E-score” value came out at 0.0405.

Consider CGGAGTCC, for which the “PBM E-score” value is 0.00061.

CGCGGCTA: the “PBM E-score” value came to 0.107.

As for TCAGGCCA, the “PBM E-score” value is -0.0616.

For AGTGTTAG, the “PBM E-score” value was found to be 0.0972.

As for AGTCATTG, the “PBM E-score” value stood at 0.0305.

Take CCACGGCA: the “PBM E-score” value is -0.0943.

With TAAGGCAA, the “PBM E-score” value was found to be 0.0779.

As for ATACCTTA, the “PBM E-score” value was determined as 0.0223.

Turning to AGATACCA, the “PBM E-score” value amounted to 0.254.

Regarding AGCGGAAA, the “PBM E-score” value was 0.238.

ACTCTCAT: the “PBM E-score” value is 0.115.
